Earlier results as cited in patent US20050000529A1, “Method and compositions for imparting cooling effect to tobacco products” (priority 2001, published 2005).
Some entries share one result that the patent states for a list of compounds. For at least one compound, name, drawing or mass did not settle the structure.

Settings: taste testing; comparison with related compounds

SMILES: CC1=C(N2CCCC2)C(=O)C(C)O1 (stereo not drawn) [Compound 24, 2,5-dimethyl-4-(l-pyrrolidinyl)-3-(2H)-furanone]
- cooling activity (in words): significant decrease in cooling activity
